Measured values taken from the supplement of paper PMC10849652.
This is one part of the list.

Sequences of proteins named here, by UniProt entry; tags and fusion partners are left off. A change or cut given only in a name is not applied to a line headed by its entry.
UniProt Q9H6U6: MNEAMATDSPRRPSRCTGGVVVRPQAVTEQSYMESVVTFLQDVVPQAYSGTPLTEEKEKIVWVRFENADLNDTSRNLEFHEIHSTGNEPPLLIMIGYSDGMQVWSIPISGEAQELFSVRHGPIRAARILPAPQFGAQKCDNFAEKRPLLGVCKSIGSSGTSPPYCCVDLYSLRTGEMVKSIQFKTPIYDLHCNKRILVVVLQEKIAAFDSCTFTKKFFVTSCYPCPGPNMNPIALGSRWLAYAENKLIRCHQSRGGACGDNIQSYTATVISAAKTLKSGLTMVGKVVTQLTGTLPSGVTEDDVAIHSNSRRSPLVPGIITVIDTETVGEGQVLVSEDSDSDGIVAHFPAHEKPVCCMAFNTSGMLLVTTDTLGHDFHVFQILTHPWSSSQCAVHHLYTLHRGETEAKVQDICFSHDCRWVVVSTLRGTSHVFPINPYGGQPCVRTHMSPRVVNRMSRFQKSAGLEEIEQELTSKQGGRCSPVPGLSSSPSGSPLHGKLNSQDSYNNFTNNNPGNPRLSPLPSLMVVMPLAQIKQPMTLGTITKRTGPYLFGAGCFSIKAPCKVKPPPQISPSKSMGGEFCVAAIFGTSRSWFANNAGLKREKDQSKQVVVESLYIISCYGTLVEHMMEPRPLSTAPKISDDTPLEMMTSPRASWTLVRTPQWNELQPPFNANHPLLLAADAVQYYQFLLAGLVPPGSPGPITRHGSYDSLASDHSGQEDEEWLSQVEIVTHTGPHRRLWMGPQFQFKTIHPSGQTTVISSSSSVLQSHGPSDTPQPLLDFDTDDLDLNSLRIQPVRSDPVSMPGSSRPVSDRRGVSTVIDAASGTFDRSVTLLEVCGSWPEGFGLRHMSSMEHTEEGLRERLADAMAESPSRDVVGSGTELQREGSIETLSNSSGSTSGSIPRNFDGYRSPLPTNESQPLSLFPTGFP
UniProt Q8IXM2, whole entry, looked up: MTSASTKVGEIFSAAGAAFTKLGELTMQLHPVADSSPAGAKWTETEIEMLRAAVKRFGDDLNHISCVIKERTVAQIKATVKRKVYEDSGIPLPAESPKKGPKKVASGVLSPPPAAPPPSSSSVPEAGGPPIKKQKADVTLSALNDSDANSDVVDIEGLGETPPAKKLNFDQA
UniProt Q9NQS1: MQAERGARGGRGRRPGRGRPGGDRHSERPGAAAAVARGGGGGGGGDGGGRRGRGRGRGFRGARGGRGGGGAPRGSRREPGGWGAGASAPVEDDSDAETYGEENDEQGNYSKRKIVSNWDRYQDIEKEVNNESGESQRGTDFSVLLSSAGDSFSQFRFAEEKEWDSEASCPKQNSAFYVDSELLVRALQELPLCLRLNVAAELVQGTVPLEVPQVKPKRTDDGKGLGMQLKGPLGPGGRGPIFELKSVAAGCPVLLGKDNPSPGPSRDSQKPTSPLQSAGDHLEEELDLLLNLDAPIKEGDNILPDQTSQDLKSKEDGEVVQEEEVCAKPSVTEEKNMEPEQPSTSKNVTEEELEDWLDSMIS
UniProt Q96GD4, whole entry, looked up: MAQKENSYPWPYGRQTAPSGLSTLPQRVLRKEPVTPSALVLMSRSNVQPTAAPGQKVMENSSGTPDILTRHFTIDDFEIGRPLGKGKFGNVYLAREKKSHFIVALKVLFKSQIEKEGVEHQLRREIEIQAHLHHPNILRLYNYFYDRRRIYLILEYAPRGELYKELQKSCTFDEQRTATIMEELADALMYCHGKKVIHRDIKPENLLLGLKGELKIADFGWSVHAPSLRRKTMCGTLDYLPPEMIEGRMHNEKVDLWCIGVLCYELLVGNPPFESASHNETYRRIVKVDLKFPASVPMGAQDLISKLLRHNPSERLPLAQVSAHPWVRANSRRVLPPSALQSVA
UniProt Q9BYG0: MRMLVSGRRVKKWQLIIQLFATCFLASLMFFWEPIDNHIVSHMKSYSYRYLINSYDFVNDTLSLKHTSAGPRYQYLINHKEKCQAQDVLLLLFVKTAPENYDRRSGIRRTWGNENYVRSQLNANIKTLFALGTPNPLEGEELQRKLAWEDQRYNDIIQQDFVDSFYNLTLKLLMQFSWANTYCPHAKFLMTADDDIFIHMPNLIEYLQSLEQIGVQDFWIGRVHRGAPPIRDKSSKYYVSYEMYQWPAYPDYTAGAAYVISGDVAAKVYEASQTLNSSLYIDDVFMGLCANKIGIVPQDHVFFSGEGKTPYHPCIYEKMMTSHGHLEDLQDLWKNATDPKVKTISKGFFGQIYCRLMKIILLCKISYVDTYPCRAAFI
UniProt P46100: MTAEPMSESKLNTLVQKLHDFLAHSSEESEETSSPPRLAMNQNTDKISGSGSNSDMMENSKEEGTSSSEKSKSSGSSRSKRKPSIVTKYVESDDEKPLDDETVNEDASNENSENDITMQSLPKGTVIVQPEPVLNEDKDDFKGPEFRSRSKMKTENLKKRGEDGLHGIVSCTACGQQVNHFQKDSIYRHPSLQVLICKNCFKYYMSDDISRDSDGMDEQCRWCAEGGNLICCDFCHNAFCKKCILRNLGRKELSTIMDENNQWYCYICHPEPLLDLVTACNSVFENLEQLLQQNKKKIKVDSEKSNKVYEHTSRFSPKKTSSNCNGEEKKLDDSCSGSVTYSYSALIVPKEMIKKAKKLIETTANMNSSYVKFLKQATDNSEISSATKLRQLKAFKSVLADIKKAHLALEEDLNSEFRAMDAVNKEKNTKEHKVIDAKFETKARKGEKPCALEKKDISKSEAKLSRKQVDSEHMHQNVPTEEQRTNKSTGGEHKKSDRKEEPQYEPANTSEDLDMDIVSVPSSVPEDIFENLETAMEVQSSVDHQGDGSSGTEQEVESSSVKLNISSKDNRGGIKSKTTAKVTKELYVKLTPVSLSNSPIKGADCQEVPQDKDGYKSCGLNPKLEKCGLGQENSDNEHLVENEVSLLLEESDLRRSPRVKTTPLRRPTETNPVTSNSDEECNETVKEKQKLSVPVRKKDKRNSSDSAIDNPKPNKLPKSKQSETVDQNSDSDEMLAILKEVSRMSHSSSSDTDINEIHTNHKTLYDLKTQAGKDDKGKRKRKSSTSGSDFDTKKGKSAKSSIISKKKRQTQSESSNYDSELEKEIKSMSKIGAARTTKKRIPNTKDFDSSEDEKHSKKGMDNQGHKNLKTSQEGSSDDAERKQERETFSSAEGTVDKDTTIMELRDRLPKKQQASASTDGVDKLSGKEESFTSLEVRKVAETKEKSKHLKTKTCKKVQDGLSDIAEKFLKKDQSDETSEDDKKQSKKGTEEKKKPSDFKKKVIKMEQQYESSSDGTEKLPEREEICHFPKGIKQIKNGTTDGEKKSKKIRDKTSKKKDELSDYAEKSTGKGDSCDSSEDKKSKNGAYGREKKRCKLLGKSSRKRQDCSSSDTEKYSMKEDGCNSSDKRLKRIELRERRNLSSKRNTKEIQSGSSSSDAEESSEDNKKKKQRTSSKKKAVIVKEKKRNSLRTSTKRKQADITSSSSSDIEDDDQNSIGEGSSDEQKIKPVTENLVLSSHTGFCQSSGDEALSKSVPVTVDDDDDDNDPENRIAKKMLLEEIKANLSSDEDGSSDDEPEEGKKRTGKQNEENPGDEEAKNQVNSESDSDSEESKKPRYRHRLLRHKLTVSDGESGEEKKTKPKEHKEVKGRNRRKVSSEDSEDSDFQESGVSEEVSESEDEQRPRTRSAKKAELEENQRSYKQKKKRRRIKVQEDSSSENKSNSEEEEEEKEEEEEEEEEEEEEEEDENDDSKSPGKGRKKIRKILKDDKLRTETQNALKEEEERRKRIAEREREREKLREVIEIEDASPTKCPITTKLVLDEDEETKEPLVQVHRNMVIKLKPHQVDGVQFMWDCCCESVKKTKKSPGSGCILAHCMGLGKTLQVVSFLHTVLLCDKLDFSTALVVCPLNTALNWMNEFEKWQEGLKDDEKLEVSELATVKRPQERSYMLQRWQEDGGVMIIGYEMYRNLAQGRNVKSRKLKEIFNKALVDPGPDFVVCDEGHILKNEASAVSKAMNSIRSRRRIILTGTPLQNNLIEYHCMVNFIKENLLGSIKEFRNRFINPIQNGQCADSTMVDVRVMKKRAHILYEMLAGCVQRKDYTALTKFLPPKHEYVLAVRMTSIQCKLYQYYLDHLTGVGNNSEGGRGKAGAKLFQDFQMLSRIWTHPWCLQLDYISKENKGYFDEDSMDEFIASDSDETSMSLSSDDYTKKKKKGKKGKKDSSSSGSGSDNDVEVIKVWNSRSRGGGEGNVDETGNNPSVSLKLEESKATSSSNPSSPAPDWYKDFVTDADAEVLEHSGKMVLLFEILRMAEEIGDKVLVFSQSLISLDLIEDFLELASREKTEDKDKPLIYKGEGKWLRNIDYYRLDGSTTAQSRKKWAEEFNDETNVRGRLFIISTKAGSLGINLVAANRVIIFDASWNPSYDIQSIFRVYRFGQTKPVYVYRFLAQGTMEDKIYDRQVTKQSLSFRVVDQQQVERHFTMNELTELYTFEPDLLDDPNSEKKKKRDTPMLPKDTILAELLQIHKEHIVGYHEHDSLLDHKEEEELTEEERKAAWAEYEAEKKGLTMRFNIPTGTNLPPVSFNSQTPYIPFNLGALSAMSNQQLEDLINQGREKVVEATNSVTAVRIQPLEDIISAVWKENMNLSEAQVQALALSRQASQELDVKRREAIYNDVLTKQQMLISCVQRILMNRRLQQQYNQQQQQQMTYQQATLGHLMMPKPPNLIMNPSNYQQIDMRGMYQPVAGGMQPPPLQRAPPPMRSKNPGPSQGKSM
UniProt Q9UQB8: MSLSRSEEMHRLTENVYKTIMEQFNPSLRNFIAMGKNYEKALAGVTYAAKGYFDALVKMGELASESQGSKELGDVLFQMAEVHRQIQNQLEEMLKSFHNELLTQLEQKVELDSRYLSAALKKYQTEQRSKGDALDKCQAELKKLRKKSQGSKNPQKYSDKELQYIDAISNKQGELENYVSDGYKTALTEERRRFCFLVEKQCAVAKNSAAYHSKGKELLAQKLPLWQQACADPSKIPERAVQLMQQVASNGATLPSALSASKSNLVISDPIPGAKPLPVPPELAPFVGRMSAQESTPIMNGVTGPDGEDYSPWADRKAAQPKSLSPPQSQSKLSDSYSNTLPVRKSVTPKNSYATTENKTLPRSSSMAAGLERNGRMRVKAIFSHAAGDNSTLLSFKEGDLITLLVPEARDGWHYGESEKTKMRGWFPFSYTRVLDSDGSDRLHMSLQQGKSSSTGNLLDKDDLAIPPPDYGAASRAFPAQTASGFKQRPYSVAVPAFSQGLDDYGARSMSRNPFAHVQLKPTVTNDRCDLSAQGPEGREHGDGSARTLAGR
UniProt Q9NZS9: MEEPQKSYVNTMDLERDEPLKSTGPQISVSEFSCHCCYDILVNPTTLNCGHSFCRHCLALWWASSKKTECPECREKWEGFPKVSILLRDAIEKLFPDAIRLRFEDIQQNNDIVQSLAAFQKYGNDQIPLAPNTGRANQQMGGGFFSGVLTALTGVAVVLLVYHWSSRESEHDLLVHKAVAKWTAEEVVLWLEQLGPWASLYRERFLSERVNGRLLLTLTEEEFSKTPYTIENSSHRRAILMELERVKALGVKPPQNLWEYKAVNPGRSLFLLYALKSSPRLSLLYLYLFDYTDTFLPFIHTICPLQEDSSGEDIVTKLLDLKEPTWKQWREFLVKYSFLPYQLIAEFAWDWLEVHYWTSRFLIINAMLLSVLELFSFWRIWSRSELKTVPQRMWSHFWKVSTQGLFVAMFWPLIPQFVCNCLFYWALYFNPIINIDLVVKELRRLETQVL
UniProt Q7Z5W3: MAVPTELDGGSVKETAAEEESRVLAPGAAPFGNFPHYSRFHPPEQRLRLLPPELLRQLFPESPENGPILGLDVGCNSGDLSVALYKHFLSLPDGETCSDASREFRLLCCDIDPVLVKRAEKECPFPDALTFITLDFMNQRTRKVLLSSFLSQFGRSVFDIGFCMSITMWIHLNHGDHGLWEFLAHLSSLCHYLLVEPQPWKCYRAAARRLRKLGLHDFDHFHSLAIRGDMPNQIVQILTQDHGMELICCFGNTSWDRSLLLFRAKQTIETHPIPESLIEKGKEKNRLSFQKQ
UniProt Q9BQE9, whole entry, looked up: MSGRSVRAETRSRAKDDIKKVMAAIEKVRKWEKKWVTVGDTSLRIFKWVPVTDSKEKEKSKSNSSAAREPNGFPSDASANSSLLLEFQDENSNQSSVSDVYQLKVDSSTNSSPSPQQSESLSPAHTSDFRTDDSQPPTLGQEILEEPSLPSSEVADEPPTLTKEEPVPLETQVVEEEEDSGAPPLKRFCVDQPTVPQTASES
UniProt Q9H7T9: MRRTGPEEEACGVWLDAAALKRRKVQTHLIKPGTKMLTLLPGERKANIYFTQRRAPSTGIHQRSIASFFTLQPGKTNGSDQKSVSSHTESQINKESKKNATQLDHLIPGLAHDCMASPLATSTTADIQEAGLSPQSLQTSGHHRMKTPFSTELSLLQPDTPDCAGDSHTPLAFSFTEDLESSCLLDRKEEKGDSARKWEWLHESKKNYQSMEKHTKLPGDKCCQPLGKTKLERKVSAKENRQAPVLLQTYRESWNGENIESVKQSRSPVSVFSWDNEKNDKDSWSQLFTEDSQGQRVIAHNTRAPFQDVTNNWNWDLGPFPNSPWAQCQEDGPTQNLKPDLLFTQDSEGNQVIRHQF

Tests used:
Experiment in all cases: log2 fold change, soluble protein after heating vs DMSO (PISA); higher = thermal stabilisation; K562 cells, 10 uM, 30 min; active = over 0.2 and 3.5 SD of the protein, either way, in both replicates (recomputed)
[1] = compound: Cc1sc2c(c1C)C(c1ccc(Cl)cc1)=N[C@@H](CC(=O)OC(C)(C)C)c1nnc(C)n1-2
Procedure, shortened: (§1)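 K562 cells at 2×10^6 cells/mL were treated for 30 min with 10 μM compound, and aliquots were heated for 3 min over 48°C-58°C before pooling. Extraction used PBS with 0.5% NP-40 at 4°C, and soluble protein was the supernatant after 21,000xg for 90 min, measured by TMTpro 16plex LC-MS/MS with channel sums equalised. Thermal stability values, relative to control samples and from duplicates, are log2 fold changes.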

[2] = compound: C1=CC=C(C=C1)[C@H](COC2=CC3=C(C=C2)NC(=O)N3)NC(=O)C4=CC=CN(C4=O)CC5=CC(=C(C=C5)F)F
Procedure, shortened: as §1

[3] = compound: CC1=C2C(=CC=C1)N=C(N(C2=O)C3=CC=CC=C3C)CN4C=NC5=C(N=CN=C54)N
Procedure, shortened: as §1

[4] = compound: CC1=C(SC2=C1C(=N[C@H](C3=NN=C(N32)C)CC(=O)N)C4=CC=C(C=C4)Cl)C
Procedure, shortened: as §1

[5] = compound: c1ccc([C@@H]2C[C@H]2NC2CCNCC2)cc1
Procedure, shortened: as §1

BCL7A isoform 2 (UniProt Q4VC05)
log2 fold change [1]: inactive: -0.012

AZI2 (UniProt Q9H6S1)
log2 fold change [2]: inactive: 0.034 | log2 fold change [3]: inactive: -0.047 | log2 fold change [1]: inactive: 0.136

BEX4 (UniProt Q9NWD9)
log2 fold change [2]: inactive: -0.016 | log2 fold change [4]: inactive: 0.031 | log2 fold change [5]: inactive: 0.114

BCR (UniProt P11274)
log2 fold change [2]: inactive: 0.126 | log2 fold change [4]: inactive: -0.157 | log2 fold change [1]: inactive: 0.32 | log2 fold change [5]: inactive: 0.154

BCAS3 isoform 8 (UniProt Q9H6U6)
log2 fold change [4]: inactive: -0.05 | log2 fold change [1]: inactive: 0.126 | log2 fold change [5]: inactive: 0.016

BAP18 isoform 3 (UniProt Q8IXM2)
log2 fold change [1]: inactive: 0.041

BNIP3L (UniProt O60238)
log2 fold change [4]: inactive: 0.277 | log2 fold change [3]: inactive: 0.169 | log2 fold change [1]: inactive: 0.009 | log2 fold change [5]: inactive: 0.044

AXIN1 (UniProt O15169)
log2 fold change [3]: inactive: 0.212

BAD (UniProt Q92934)
log2 fold change [2]: inactive: -0.001 | log2 fold change [4]: inactive: -0.042 | log2 fold change [3]: inactive: -0.086 | log2 fold change [5]: inactive: 0.032

BORCS8 (UniProt Q96FH0)
log2 fold change [1]: inactive: -0.046

BAZ1B (UniProt Q9UIG0)
log2 fold change [4]: inactive: 0.047 | log2 fold change [3]: inactive: 0.085 | log2 fold change [5]: inactive: -0.125

BDH2 (UniProt Q9BUT1)
log2 fold change [2]: inactive: -0.033 | log2 fold change [4]: inactive: 0.087 | log2 fold change [3]: inactive: -0.213 | log2 fold change [5]: inactive: 0.12

AURKAIP1 (UniProt Q9NWT8)
log2 fold change [4]: inactive: -0.282 | log2 fold change [3]: inactive: -0.33 | log2 fold change [1]: inactive: 0.062 | log2 fold change [5]: inactive: 0.059

BRCA1 isoform 7 (UniProt P38398)
log2 fold change [3]: inactive: -0.355

AVEN (UniProt Q9NQS1)
log2 fold change [2]: inactive: -0.063 | log2 fold change [4]: inactive: -0.052 | log2 fold change [3]: inactive: -0.027 | log2 fold change [5]: inactive: -0.027

BCL2L12 (UniProt Q9HB09)
log2 fold change [2]: inactive: 0.21 | log2 fold change [4]: inactive: 0.147 | log2 fold change [3]: inactive: -0.04 | log2 fold change [5]: inactive: 0.015

AURKB isoform 5 (UniProt Q96GD4)
log2 fold change [3]: inactive: -0.179 | log2 fold change [1]: inactive: 0.14

B3GNT5 (UniProt Q9BYG0)
log2 fold change [2]: inactive: -0.1 | log2 fold change [4]: inactive: -0.021 | log2 fold change [3]: inactive: 0.106 | log2 fold change [5]: inactive: 0.029

ATRX (UniProt P46100)
log2 fold change [4]: inactive: 0.048 | log2 fold change [5]: inactive: -0.143

BLVRA (UniProt C9J1E1)
log2 fold change [2]: inactive: -0.04 | log2 fold change [4]: inactive: -0.013 | log2 fold change [3]: inactive: 0.078 | log2 fold change [5]: inactive: 0.26

BCL7C isoform 2 (UniProt Q8WUZ0)
log2 fold change [2]: inactive: 0.094 | log2 fold change [4]: inactive: 0.04 | log2 fold change [5]: inactive: -0.038

BIN1 (UniProt O00499)
log2 fold change [3]: inactive: 0.157

BRK1 isoform 2 (UniProt Q8WUW1)
log2 fold change [2]: inactive: 0.018 | log2 fold change [4]: inactive: -0.018 | log2 fold change [3]: inactive: 0.025 | log2 fold change [1]: inactive: -0.055 | log2 fold change [5]: inactive: -0.013

BAIAP2 isoform 4 (UniProt Q9UQB8)
log2 fold change [4]: inactive: 0.029 | log2 fold change [1]: inactive: -0.206 | log2 fold change [5]: inactive: 0.151

BPNT1 (UniProt A6NF51)
log2 fold change [2]: inactive: -0.048 | log2 fold change [3]: inactive: -0.078 | log2 fold change [1]: inactive: 0.056

BET1L (UniProt Q9NYM9)
log2 fold change [4]: inactive: 0.115 | log2 fold change [3]: inactive: 0.157 | log2 fold change [1]: inactive: -0.09 | log2 fold change [5]: inactive: -0.007

BFAR (UniProt Q9NZS9)
log2 fold change [3]: inactive: 0.063

BRAF, A0A2R8Y8E0
log2 fold change [1]: inactive: 0.162

BRMS1 (UniProt Q9HCU9)
log2 fold change [1]: inactive: -0.011

ATRAID isoform 3 (UniProt Q6UW56)
log2 fold change [2]: inactive: 0.045 | log2 fold change [4]: inactive: 0.049 | log2 fold change [3]: inactive: 0.071 | log2 fold change [1]: inactive: 0.02 | log2 fold change [5]: inactive: -0.03

BCL2L11 (UniProt O43521)
log2 fold change [4]: inactive: 0.042 | log2 fold change [3]: inactive: -0.022 | log2 fold change [1]: inactive: -0.048 | log2 fold change [5]: inactive: -0.015

BCDIN3D (UniProt Q7Z5W3)
log2 fold change [2]: inactive: -0.024 | log2 fold change [4]: inactive: -0.236 | log2 fold change [1]: inactive: 0.074 | log2 fold change [5]: inactive: -0.025

BCL7B (UniProt Q9BQE9)
log2 fold change [4]: inactive: -0.141 | log2 fold change [3]: inactive: 0.075 | log2 fold change [5]: inactive: -0.056

BNIP3 (UniProt Q12983)
log2 fold change [2]: inactive: -0.01 | log2 fold change [3]: inactive: 0.11 | log2 fold change [1]: inactive: 0.006

AUNIP isoform 2 (UniProt Q9H7T9)
log2 fold change [4]: inactive: 0.031 | log2 fold change [3]: inactive: 0.086 | log2 fold change [1]: inactive: -0.001 | log2 fold change [5]: inactive: -0.014
